The target of assay [1] is TAP-Sen1 (full-length Sen1 fused to a tandem affinity purification tag, expressed from pGAL1) (S. cerevisiae) (UniProt Q00416). The assay is described as follows: affinity purification with mass spectrometry; TAP-tagged Sen1 versions (full length, ΔNTD, NTD) overexpressed from pGAL1 as baits; yeast lysates in 10 mM sodium phosphate pH 7.5, 200 mM sodium acetate, 0.25% NP-40, treated with RNase A; IgG Sepharose; elution by TEV cleavage; untagged control.

Assay [2] concerns the target T1, TAP-NTD (isolated N-terminal domain of Sen1, TAP-tagged, expressed from pGAL1) (S. cerevisiae) (UniProt Q00416).
T1 sequence: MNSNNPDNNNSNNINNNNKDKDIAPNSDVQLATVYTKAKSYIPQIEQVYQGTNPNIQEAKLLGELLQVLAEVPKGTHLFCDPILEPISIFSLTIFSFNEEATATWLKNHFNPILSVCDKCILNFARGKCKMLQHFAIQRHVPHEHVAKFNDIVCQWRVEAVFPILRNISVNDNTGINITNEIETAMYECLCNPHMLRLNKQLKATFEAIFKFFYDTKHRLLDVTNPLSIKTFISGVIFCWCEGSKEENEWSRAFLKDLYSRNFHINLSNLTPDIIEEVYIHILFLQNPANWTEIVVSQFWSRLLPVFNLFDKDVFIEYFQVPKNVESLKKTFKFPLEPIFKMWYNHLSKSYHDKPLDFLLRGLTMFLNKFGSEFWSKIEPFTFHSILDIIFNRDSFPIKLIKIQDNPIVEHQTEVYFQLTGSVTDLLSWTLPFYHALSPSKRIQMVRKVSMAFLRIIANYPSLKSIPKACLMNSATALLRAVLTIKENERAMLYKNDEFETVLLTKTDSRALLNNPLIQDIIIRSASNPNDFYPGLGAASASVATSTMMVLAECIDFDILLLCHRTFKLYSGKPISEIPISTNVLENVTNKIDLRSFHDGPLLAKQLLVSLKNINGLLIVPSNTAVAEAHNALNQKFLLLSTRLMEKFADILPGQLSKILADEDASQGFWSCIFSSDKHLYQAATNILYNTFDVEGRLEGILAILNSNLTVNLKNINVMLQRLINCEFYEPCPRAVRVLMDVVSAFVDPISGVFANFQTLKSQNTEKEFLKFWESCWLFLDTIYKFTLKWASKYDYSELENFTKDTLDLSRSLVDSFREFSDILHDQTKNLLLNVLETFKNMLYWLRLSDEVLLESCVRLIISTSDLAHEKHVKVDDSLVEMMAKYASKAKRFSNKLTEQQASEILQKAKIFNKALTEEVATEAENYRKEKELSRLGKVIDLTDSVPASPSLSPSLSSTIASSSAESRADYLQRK
The assay is described as above.

The target of assay [3] is T2, TAP-Sen1ΔNTD (Sen1 lacking the N-terminal domain, TAP-tagged, expressed from pGAL1) (S. cerevisiae) (UniProt Q00416).
T2 sequence: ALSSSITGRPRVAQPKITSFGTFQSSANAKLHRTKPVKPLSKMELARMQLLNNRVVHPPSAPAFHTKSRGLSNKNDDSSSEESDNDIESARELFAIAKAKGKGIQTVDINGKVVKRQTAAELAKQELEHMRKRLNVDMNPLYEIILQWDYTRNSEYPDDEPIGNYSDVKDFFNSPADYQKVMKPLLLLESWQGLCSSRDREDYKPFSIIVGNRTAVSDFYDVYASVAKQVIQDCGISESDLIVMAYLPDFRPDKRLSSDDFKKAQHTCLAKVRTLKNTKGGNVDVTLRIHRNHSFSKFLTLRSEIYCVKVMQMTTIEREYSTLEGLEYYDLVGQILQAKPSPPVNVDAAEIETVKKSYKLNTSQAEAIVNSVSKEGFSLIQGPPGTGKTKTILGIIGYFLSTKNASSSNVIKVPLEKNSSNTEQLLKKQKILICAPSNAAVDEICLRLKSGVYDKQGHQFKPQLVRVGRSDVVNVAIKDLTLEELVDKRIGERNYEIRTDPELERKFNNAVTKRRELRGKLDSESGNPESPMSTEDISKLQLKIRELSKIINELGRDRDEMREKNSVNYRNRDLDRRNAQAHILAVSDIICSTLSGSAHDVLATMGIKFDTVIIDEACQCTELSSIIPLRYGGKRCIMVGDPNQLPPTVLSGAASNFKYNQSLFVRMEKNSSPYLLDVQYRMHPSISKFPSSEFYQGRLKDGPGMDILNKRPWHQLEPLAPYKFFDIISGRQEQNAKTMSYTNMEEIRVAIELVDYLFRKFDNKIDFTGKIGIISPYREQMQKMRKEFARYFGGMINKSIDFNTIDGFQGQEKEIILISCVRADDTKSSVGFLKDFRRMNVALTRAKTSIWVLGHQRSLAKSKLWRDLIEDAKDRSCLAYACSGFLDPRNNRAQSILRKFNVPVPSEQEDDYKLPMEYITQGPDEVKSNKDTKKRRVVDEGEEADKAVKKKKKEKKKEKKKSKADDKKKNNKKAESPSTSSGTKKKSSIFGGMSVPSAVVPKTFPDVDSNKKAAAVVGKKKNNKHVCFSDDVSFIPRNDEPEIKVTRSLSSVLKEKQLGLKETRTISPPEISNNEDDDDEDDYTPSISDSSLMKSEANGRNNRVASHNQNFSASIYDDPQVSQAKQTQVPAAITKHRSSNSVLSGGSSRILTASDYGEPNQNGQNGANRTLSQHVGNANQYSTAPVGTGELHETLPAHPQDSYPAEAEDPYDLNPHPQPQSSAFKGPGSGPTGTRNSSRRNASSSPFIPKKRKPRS
The assay is described as above.

For assay [4], the target named is Sen1-TAP (wild-type Sen1 fused to a TAP tag) (S. cerevisiae) (UniProt Q00416). The assay is described as follows: affinity purification with mass spectrometry; Sen1-TAP or Sen1-3–TAP as bait; yeast lysates; untagged control.

No constants are given. Whether binding was seen depends on the method and setting. Binding seen in cells or lysates may run through a third protein. Here binding means that the protein was enriched with, or labelled near, the bait; the list need not be complete. For some of these results: A no says only that the protein was not detected with the bait. For some of these results: Sequences can lack the tags named with a protein.

B1: Rpc17 (protein, UniProt P47076 1-161)
chain: MKVLEERNAFLSDYEVLKFLTDLEKKHLWDQKSLAALKKSRSKGKQNRPYNHPELQGITRNVVNYLSINKNFINQEDEGEERESSGAKDAEKSGISKMSDESFAELMTKLNSFKLFKAEKLQIVNQLPANMVHLYSIVEECDARFDEKTIEEMLEIISGYA
For B1, the binding result was “binds” in assay [1], “binds” in assay [2], “no binding” in assay [3] and “binds” in assay [4].

B2: Rpc34 (protein, UniProt P32910 1-317)
chain: MSGMIENGLQLSDNAKTLHSQMMSKGIGALFTQQELQKQMGIGSLTDLMSIVQELLDKNLIKLVKQNDELKFQGVLESEAQKKATMSAEEALVYSYIEASGREGIWSKTIKARTNLHQHVVLKCLKSLESQRYVKSVKSVKFPTRKIYMLYSLQPSVDITGGPWFTDGELDIEFINSLLTIVWRFISENTFPNGFKNFENGPKKNVFYAPNVKNYSTTQEILEFITAAQVANVELTPSNIRSLCEVLVYDDKLEKVTHDCYRVTLESILQMNQGEGEPEAGNKALEDEEEFSIFNYFKMFPASKHDKEVVYFDEWTI
Regarding B2, the binding entry in assay [1] is recorded as “binds”; in assay [2], “binds”; in assay [3], “no binding”; in assay [4], “binds”.

B3: Rpc31 (protein, UniProt P17890 1-251)
chain: MSSYRGGSRGGGSNYMSNLPFGLGYGDVGKNHITEFPSIPLPINGPITNKERSLAVKYINFGKTVKDGPFYTGSMSLIIDQQENSKSGKRKPNIILDEDDTNDGIERYSDKYLKKRKIGISIDDHPYNLNLFPNELYNVMGINKKKLLAISKFNNADDVFTGTGLQDENIGLSMLAKLKELAEDVDDASTGDGAAKGSKTGEGEDDDLADDDFEEDEDEEDDDDYNAEKYFNNGDDDDYGDEEDPNEEAAF
As to B3, the binding result was “binds” in assay [1], “binds” in assay [2], “no binding” in assay [3] and “binds” in assay [4].

B4: Rpc11 (protein, UniProt Q04307 1-110)
chain: MLSFCPSCNNMLLITSGDSGVYTLACRSCPYEFPIEGIEIYDRKKLPRKEVDDVLGGGWDNVDQTKTQCPNYDTCGGESAYFFQLQIRSADEPMTTFYKCVNCGHRWKEN
In the case of B4, the binding result in assay [1] is listed as “binds”; in assay [2], “binds”; in assay [3], “no binding”; in assay [4], “binds”.
